Measurements from “University of Dundee, Small-Polar-MMV Screening Library” (2021), ChEMBL document CHEMBL3988442.

Mtb cholesterol medium: 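Growth of Mycobacterium tuberculosis over 4 days (cholesterol / DPPC medium with tyloxapol); the read-out is not stated. Tested at 50 µM. Higher reads as more growth inhibition (inferred: compounds with an IC50 in retests scored well above the rest). Size under these conditions: about 69,000 compounds, about 370 of them at 50% or above in at least one test.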
Mtb glucose medium: 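Whole-cell growth test on Mycobacterium tuberculosis, read after 3 days in glucose-containing 7H9 medium; the read-out is not stated. Compounds at 50 µM. The record gives no direction; compounds that gave an IC50 in retests scored well above the rest, so higher reads as more growth inhibition. Of about 69,000 compounds tested this way, about 760 (1.1%) reached 50% or more in at least one test.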

Results are given as percent effect. How 0% and 100% were set is not recorded. Most values in the screen are low, and negative values occur. This is an unselected part of the compounds tested. Two or more numbers in one place are separate tests of the same structure; such repeats can differ widely.

structure,Mtb cholesterol medium,Mtb glucose medium
Cc1cccc(N2CCN(C(=O)CCc3ccsc3)C(C)C2)n1 (stereo not given),24.43%,35.59%
[H][C@@]12CCN(Cc3ccc(C)cc3)C[C@]1([H])[C@H](c1nc(C)no1)CCO2,-13.15%,-5.061%
Cc1ccc(C)c(NC(=O)N(C)Cc2cnn(C)c2)c1,-10.46%,-4.474%
COCC1Cn2nnc(-c3cnn(C)c3)c2CN1Cc1ccco1.O=C(O)C(F)(F)F (stereo not given),18.2% and -7.22%,20.61%
O=C(NCCN1CCNCC1)c1nc2ccccc2c(=O)[nH]1,-29.26%,-7.639%
O=C(O)C(F)(F)F.[H][C@]12C[C@H](C(=O)NC)N(C)[C@@]1([H])CN(S(=O)(=O)Cc1ccccc1)C2,-9.48%,11.14% and 0.1713%
CS(=O)(=O)CCNC(=O)c1ccc(-c2ccco2)[nH]c1=O,-28.6%,-27.19%
Cc1cccc(C(=O)N2CCCN(Cc3cscn3)CC2)c1,2.455%,-12.25%
O=S(=O)(Nc1ccc(N2CCOCC2)cn1)c1ccc(F)cc1,-8.157%,-10.77% and -3.561%
CNC(=O)c1ccc(CN(C(=O)c2scnc2C)C2CC2)cc1,-21.98%,-23.21%
Cc1ccccc1OCCCC(=O)N(C)CCC#N,12.52%,20.9%
CC(C)c1nc(CN2CCCCC2Cn2cncn2)cs1 (stereo not given),-28.64%,-8.69%
[H][C@@]12CN(Cc3cccc(C)n3)C[C@]1([H])OCCN2S(=O)(=O)N(C)C,0.6765%,6.762% and 7.514%
CCc1ccc2occ(CC(=O)N3CCC4(CCCN(C)C4=O)C3)c2c1 (stereo not given),-13.55%,-13.2%
O=C(c1cocn1)N1CCC2(CC1)CC(OCC1CC1)CO2 (stereo not given),2.464%,-3.392% and 15.25%
O=c1[nH]c(-c2ccc(F)c(F)c2)nc2c1CCNC2,-8.649%,-3.652%
Cc1nc(C)n(CC2CCCN2Cc2nc3ccccc3s2)n1 (stereo not given),-11.98%,7.759%
O=C(c1ccc(Cl)cc1)N1CCn2c(nn(-c3ccncc3)c2=O)C1,-8.279%,19.16%
O=C(c1cncc(N2CCC3(CCCNC3)C2)n1)N1CCCC1 (stereo not given),-2.194% and 8.872%,7.948%
c1cc(-c2ccc3c(c2)CCC32CCNCC2)ccn1,9.485%,21.17% and -49.36%
COc1ccc2c(c1)C(=O)N(C)C1(CCN(CC=C(C)C)CC1)N2,-12.94%,0.8833% and -12.96%
O=C(c1ccc(=O)[nH]c1)N1CCCC2(C=Cc3ccccc3O2)CC1 (stereo not given),-1.667% and -18.3%,-20.39%
Cc1cccc(CN(Cc2nc3c(cnn3C)c(=O)[nH]2)C2CC2)c1,-3.106%,-11.57%
O=C(O)CC1CN(S(=O)(=O)c2cccc(F)c2)c2ccccc21 (stereo not given),3.759%,4.983%
Cc1noc(C2CCCCN2C(=O)NC2CCCC2)n1 (stereo not given),-12.07%,-6.329% and -22.48%
Cn1cc(S(=O)(=O)NCC2CCN(C(=O)Oc3ccccc3)CC2)cn1,8.784%,11.87%
CN(C)C(=O)CCCNc1ncc2c(n1)CCN2c1ccccc1,0.9208%,6.128% and -37.14%
COc1ccc(OCC(=O)NS(=O)(=O)c2ccc(Br)s2)cc1,-7.779%,-5.823%
[H][C@@]12CN(C(=O)c3conc3C)C[C@]1([H])C(=O)N(Cc1cccc(C)c1)C2,6.159%,19.35% and 4.457%
NC(=O)N1CCCC(C(=O)NCCc2nc(Cc3ccccc3)no2)C1 (stereo not given),7.674%,5.344% and -5.677%
CC(C)(C)c1nc(CN(Cc2cccnc2)C2CN3CCC2CC3)no1 (stereo not given),9.813%,3.068%
CC(C)c1nc(S(=O)(=O)Nc2ccnn2C2CCCC2)c[nH]1,-18.52%,-11.51%
CCC(C)N1CCC2(CC1)CN(c1cncnc1)C(=O)CO2.O=C(O)C(F)(F)F (stereo not given),-7.679%,8.915%
CN(C)Cc1cnc2n1CCN(C(=O)Cc1ccc(F)cc1)CC2.O=C(O)C(F)(F)F,6.678%,-7.547% and -0.5134%
O=C(O)C(F)(F)F.[H][C@@]12COC[C@]1([H])[C@@H](OCC1CCOCC1)CN2Cc1ccc(C)o1,-9.865%,-7.531%
Cc1nc(CN2CCN(CC3CCOC3)Cc3cccnc32)cs1.O=C(O)C(F)(F)F.O=C(O)C(F)(F)F.O=C(O)C(F)(F)F (stereo not given),16.99% and -9.217%,29.18% and -1.905%
Cc1nc(C2CCN(C(=O)c3ccn(C)n3)CC2)c2sccn12,1.164%,-0.1605%
CC(=O)Nc1ccccc1Sc1nc(Br)nn1C,1.098%,25.31%
Cc1cc(F)c(S(=O)(=O)Nc2ccn(CCC#N)n2)cc1F,-8.258%,0.6949%
N#CC(NC(=O)CCC(=O)NC1CCCC1)c1ccc(F)cc1F (stereo not given),-2.051% and -9.776%,-12.43%
Cc1cnc(C(=O)N[C@H]2CN(CCS(C)(=O)=O)C[C@@H]2C2CC2)cn1,-23.23%,-6.506% and -17.72%
CC(NC(=O)CCn1cccn1)c1cccs1 (stereo not given),-3.666%,9.081%

The first 3 entries again:

structure,Mtb cholesterol medium,Mtb glucose medium
Cc1cccc(N2CCN(C(=O)CCc3ccsc3)C(C)C2)n1 (stereo not given),24.43%,35.59%
[H][C@@]12CCN(Cc3ccc(C)cc3)C[C@]1([H])[C@H](c1nc(C)no1)CCO2,-13.15%,-5.061%
Cc1ccc(C)c(NC(=O)N(C)Cc2cnn(C)c2)c1,-10.46%,-4.474%